Paper PMC11435625, “In Vitro Hepatic Clearance Evaluations of Per- and Polyfluoroalkyl Substances (PFAS) across Multiple Structural Categories” (Toxics, 2024)

Assay: Administered equivalent dose (AED) by reverse dosimetry
Parameters: species or system human
Conditions: reverse dosimetry from in vitro POD and Css
Protocol: IVIVE was performed as previously described to calculate human steady-state concentrations (Css). Briefly, experimental plasma protein binding data presented elsewhere were transformed to fraction unbound in blood using blood-to-plasma partitioning values. Experimental Clint values generated here are used in conjunction with relevant liver scalars to scale up to estimate whole liver clearance. […] Once Css values were established, these were used with the PFAS-specific in vitro POD data to calculate the administered equivalent doses (AEDs) using reverse dosimetry. […] The fifth-percentile AC50 value was used to define the in vitro POD. All relevant inputs, scalars, and calculations are provided in Supplementary Information, as indicated in the results.

SMILES	AED [mg/kg/day]
O=C(O)CCC(F)(F)C(F)(F)C(F)(F)C(F)(F)C(F)(F)F	0.9861
O=C(O)C(F)(F)C(F)(F)C(F)(F)C(F)(F)C(F)(F)C(F)(F)C(F)(F)C(F)(F)C(F)(F)C(F)(F)C(F)(F)C(F)(F)F [Perfluorotridecanoic acid]	0.1545
O=S(=O)([O-])C(F)(F)C(F)(F)C(F)(F)C(F)(F)F.[K+]	0.0343
O=C(Cl)C(F)(F)C(F)(F)C(F)(F)C(F)(F)C(F)(F)C(F)(F)C(F)(F)F	0.0010
O=C(O)C(F)(F)C(F)(F)C(F)(F)C(F)(F)C(F)(F)C(F)(F)C(F)(F)C(F)(F)F [Perfluorononanoic acid (PFNA)]	0.0453
NS(=O)(=O)C(F)(F)C(F)(F)C(F)(F)C(F)(F)C(F)(F)C(F)(F)C(F)(F)C(F)(F)F [Perfluorooctane sulfonamide (PFOSA)]	2.1470
O=S(=O)(OCC(F)(F)F)C(F)(F)C(F)(F)C(F)(F)C(F)(F)F [2,2,2-Trifluoroethyl perfluorobutanesulfonate]	0.0541
CCNS(=O)(=O)C(F)(F)C(F)(F)C(F)(F)C(F)(F)C(F)(F)C(F)(F)C(F)(F)C(F)(F)F	4.0220
O=S(=O)(O)C(F)(F)C(F)(F)C(F)(F)C(F)(F)F [Perfluorobutanesulfonic acid (PFBS)]	0.8295
O=S(=O)(O)CCC(F)(F)C(F)(F)C(F)(F)C(F)(F)C(F)(F)C(F)(F)C(F)(F)C(F)(F)F	2.2926
O=C(O)C(F)(F)OC(F)(F)C(F)(F)OC(F)(F)F	0.0446
O=S(=O)(O)C(F)(F)C(F)(F)C(F)(F)C(F)(F)C(F)(F)C(F)(F)F [Perfluorohexanesulfonic acid (PFHxS)]	0.0334
O=C(Cl)C(F)(F)C(F)(F)C(F)(F)C(F)(F)C(F)(F)C(F)(F)F [Perfluoroheptanoyl chloride (PFHpA-Cl)]	0.0179
O=P(O)(O)CCC(F)(F)C(F)(F)C(F)(F)C(F)(F)C(F)(F)C(F)(F)F [2-(Perfluorohexyl)ethylphosphonic acid]	0.0793
O=C(O)C(F)(F)C(F)(F)C(F)(F)C(F)(F)C(F)(F)C(F)(F)C(F)(F)C(F)F [9-H-Perfluorononanoic acid (9H-PFNA)]	0.0041
O=C(O)C(F)(F)C(F)(F)C(F)(F)C(F)(F)C(F)(F)C(F)(F)C(F)(F)F [Perfluorooctanoic acid (PFOA)]	0.0138
NS(=O)(=O)C(F)(F)C(F)(F)C(F)(F)C(F)(F)C(F)(F)C(F)(F)F [Perfluorohexanesulfonamide (PFHxSA)]	0.0048
O=C(O)C(F)(F)C(F)(F)C(F)(F)C(F)(F)C(F)(F)C(F)(F)C(F)F [8H-Perfluorooctanoic acid (8H-PFOA)]	0.0365
O=S(=O)(Cl)C(F)(F)C(F)(F)C(F)(F)C(F)(F)C(F)(F)C(F)(F)C(F)(F)C(F)(F)F	0.2584
O=C(O)C(F)(F)C(F)(F)C(F)(F)C(F)(F)C(F)(F)C(F)(F)C(F)(F)C(F)(F)C(F)(F)C(F)F	0.0252
O=S(=O)(O)CCC(F)(F)C(F)(F)C(F)(F)C(F)(F)C(F)(F)C(F)(F)F	0.8919

SMILES	AED [mg/kg/day]
O=C(O)C(F)(F)OC(F)(F)C(F)(F)OC(F)(F)C(F)(F)OC(F)(F)F [Perfluoro-3,6,9-trioxadecanoic acid]	0.0033
O=S(=O)(O)C(F)(F)C(F)(F)C(F)(F)C(F)(F)C(F)(F)C(F)(F)C(F)(F)F [Perfluoroheptanesulfonic acid (PFHpS)]	0.0202
O=C(O)CCC(F)(F)C(F)(F)C(F)(F)C(F)(F)C(F)(F)C(F)(F)F [6:3 FTCA, 6:3 Fluorotelomer carboxylic acid]	0.1829
O=S(=O)([O-])C(F)(F)C(F)(F)C(F)(F)C(F)(F)C(F)(F)C(F)(F)C(F)(F)C(F)(F)F.[K+]	0.0959
O=S(=O)([O-])C(F)(F)C(F)(F)C(F)(F)C(F)(F)C(F)(F)C(F)(F)F.[K+]	0.0194
O=C(O)C(F)(F)C(F)(F)C(F)(F)C(F)(F)C(F)(F)C(F)(F)C(F)(F)C(F)(F)C(F)(F)F [Perfluorodecanoic acid (PFDA)]	0.0626
O=C(O)C(F)(F)C(F)(F)C(F)(F)C(F)(F)C(F)(F)C(F)(F)C(F)(F)C(F)(F)C(F)(F)C(F)(F)C(F)(F)C(F)(F)C(F)(F)F [Perfluorotetradecanoic acid (PFTeA)]	0.3694
O=S(=O)(O)C(F)(F)C(F)(F)OC(F)(F)C(F)(F)F [Perfluoro(2-ethoxyethane)sulfonic acid]	0.4229
O=S(=O)([O-])C(F)(F)C(F)(F)C(F)(F)C(F)(F)C(F)(F)C(F)(F)C(F)(F)C(F)(F)C(F)(F)C(F)(F)F.[Na+] [Sodium perfluorodecanesulfonate (NaPFDS)]	0.3936
CNS(=O)(=O)C(F)(F)C(F)(F)C(F)(F)C(F)(F)C(F)(F)C(F)(F)C(F)(F)C(F)(F)F	3.0589
O=S(=O)(O)C(F)(F)C(F)(F)C(F)(F)C(F)(F)C(F)(F)C(F)(F)C(F)(F)C(F)(F)F [Perfluorooctane sulfonate (PFOS)]	0.0814
C[N+](C)(C)CCCNS(=O)(=O)C(F)(F)C(F)(F)C(F)(F)C(F)(F)C(F)(F)C(F)(F)C(F)(F)C(F)(F)F.[I-]	0.0349
O=C(O)CCC(F)(F)C(F)(F)C(F)(F)C(F)(F)C(F)(F)C(F)(F)C(F)(F)F [7:3 FTCA, 3-Perfluoroheptylpropanoic acid]	0.1923
O=C(O)C(F)(F)C(F)(F)C(F)(F)C(F)(F)C(F)(F)C(F)(F)F [Perfluoroheptanoic acid (PFHpA)]	0.0100
O=C(O)C(F)(F)OC(F)(F)C(F)(F)OC(F)(F)C(F)(F)C(F)(F)C(F)(F)F [Perfluoro-3,6-dioxadecanoic acid]	0.0062
O=C(O)C(F)(F)C(F)(F)C(F)(F)OC(F)(F)F	2.6816
O=C(O)C(F)(F)C(F)(F)C(F)(F)C(F)(F)C(F)(F)F [Perfluorohexanoic acid (PFHxA)]	0.0801
O=C(O)C(F)(F)C(F)(F)C(F)(F)F [Perfluorobutanoic acid (PFBA)]	0.1034
O=C(O)C(F)(F)C(F)(F)C(F)(F)OC(F)(C(F)(F)F)C(F)(F)F	0.8818
O=C(O)C(F)(F)C(F)(F)C(F)(F)C(F)(F)C(F)(F)C(F)(F)C(F)(F)C(F)(F)C(F)(F)C(F)(F)F [Perfluoroundecanoic acid (PFUnDA)]	0.0625
N.O=C(O)C(F)(F)C(F)(F)C(F)(F)C(F)(F)C(F)(F)C(F)(F)C(F)(F)F [Ammonium perfluorooctanoate (NH4PFOA)]	0.0724
